{"source": "PubChem BioAssay AID188", "about": "(DTP/NCI, 2004)", "test_system": "CD2F1 mice, nontumored, toxicity/survival", "test": "NCI In Vivo Anticancer Drug Screen. Data for tumor model Nontumored Animals (Toxicity Test) in CD2F1 (CDF1) mice", "key": {"[1]": {"conditions": "dose: 1.0 mg/kg/injection, schedule: Q01DX001 (ip), vehicle: other"}}, "note": "The mice bore no tumour; each value counts animals alive of those treated. Survivors were counted at the toxicity check, usually on the fifth day, unless a day is given; later deaths do not show. Schedule codes are those of the source, read here as Q, the interval in days (D) or hours (H), X, the number of doses.", "data": [{"smiles": "COc1ccc(CC2C(=O)NC(C)C(=O)N(C)C3C(=O)N(C)C(Cc4ccc(O)c(c4)Oc4ccc(cc4)C3O)C(=O)NC(C)C(=O)NC(C)C(=O)N2C)cc1", "note": "(configuration not stated)", "values": [{"measurement": "survivor count", "setting": "dose: 0.03 mg/kg/injection, schedule: Q01DX009 (ip), vehicle: Klucel (hydroxypropylcellulose) (HPC)", "result": "6 of 6"}, {"measurement": "survivor count", "setting": "dose: 0.03 mg/kg/injection, schedule: Q01DX009 (ip), vehicle: saline + alcohol", "result": "5 of 6"}, {"measurement": "survivor count", "setting": "dose: 0.06 mg/kg/injection, schedule: Q01DX009 (ip), vehicle: Klucel (hydroxypropylcellulose) (HPC)", "result": "6 of 6"}, {"measurement": "survivor count", "setting": "dose: 0.06 mg/kg/injection, schedule: Q01DX009 (ip), vehicle: saline + alcohol", "result": "6 of 6"}, {"measurement": "survivor count", "setting": "dose: 0.12 mg/kg/injection, schedule: Q01DX009 (ip), vehicle: Klucel (hydroxypropylcellulose) (HPC)", "result": "5 of 6"}, {"measurement": "survivor count", "setting": "dose: 0.12 mg/kg/injection, schedule: Q01DX009 (ip), vehicle: saline + alcohol", "result": "6 of 6"}, {"measurement": "survivor count", "setting": "dose: 0.13 mg/kg/injection, schedule: Q03HX024 (ip), vehicle: other", "result": "8 of 8"}, {"measurement": "survivor count", "setting": "dose: 0.25 mg/kg/injection, schedule: Q01DX005 (ip), vehicle: other", "result": "8 of 8"}, {"measurement": "survivor count", "setting": "dose: 0.25 mg/kg/injection, schedule: Q01DX005 (iv), vehicle: other", "result": "8 of 8"}, {"measurement": "survivor count", "setting": "dose: 0.25 mg/kg/injection, schedule: Q01DX009 (ip), vehicle: Klucel (hydroxypropylcellulose) (HPC)", "result": "6 of 6"}, {"measurement": "survivor count", "setting": "dose: 0.25 mg/kg/injection, schedule: Q01DX009 (ip), vehicle: other", "result": "8 of 8"}, {"measurement": "survivor count", "setting": "dose: 0.25 mg/kg/injection, schedule: Q01DX009 (ip), vehicle: saline + alcohol", "result": "6 of 6"}, {"measurement": "survivor count", "setting": "dose: 0.25 mg/kg/injection, schedule: Q01DX009 (sc), vehicle: other", "result": "8 of 8"}, {"measurement": "survivor count", "setting": "dose: 0.25 mg/kg/injection, schedule: Q03HX008 (ip), vehicle: other", "result": "8 of 8"}, {"measurement": "survivor count", "setting": "dose: 0.25 mg/kg/injection, schedule: Q03HX016 (ip), vehicle: other", "result": "8 of 8"}, {"measurement": "survivor count", "setting": "dose: 0.25 mg/kg/injection, schedule: Q03HX024 (ip), vehicle: other", "result": "7 of 8"}, {"measurement": "survivor count", "setting": "dose: 0.5 mg/kg/injection, schedule: Q01DX005 (ip), vehicle: other", "result": "8 of 8"}, {"measurement": "survivor count", "setting": "dose: 0.5 mg/kg/injection, schedule: Q01DX005 (iv), vehicle: other", "result": "8 of 8"}, {"measurement": "survivor count", "setting": "dose: 0.5 mg/kg/injection, schedule: Q01DX009 (ip), vehicle: Klucel (hydroxypropylcellulose) (HPC)", "result": "5 of 6"}, {"measurement": "survivor count", "setting": "dose: 0.5 mg/kg/injection, schedule: Q01DX009 (ip), vehicle: other", "result": "8 of 8"}, {"measurement": "survivor count", "setting": "dose: 0.5 mg/kg/injection, schedule: Q01DX009 (ip), vehicle: saline + alcohol", "result": "6 of 6"}, {"measurement": "survivor count", "setting": "dose: 0.5 mg/kg/injection, schedule: Q01DX009 (oral), vehicle: other", "result": "8 of 8"}, {"measurement": "survivor count", "setting": "dose: 0.5 mg/kg/injection, schedule: Q01DX009 (sc), vehicle: other", "result": "8 of 8"}, {"measurement": "survivor count", "setting": "dose: 0.5 mg/kg/injection, schedule: Q03HX008 (ip), vehicle: other", "result": "5 of 8"}, {"measurement": "survivor count", "setting": "dose: 0.5 mg/kg/injection, schedule: Q03HX016 (ip), vehicle: other", "result": "7 of 8"}, {"measurement": "survivor count", "setting": "dose: 0.5 mg/kg/injection, schedule: Q03HX024 (ip), vehicle: other", "result": "6 of 8"}, {"measurement": "survivor count", "setting": "dose: 0.5 mg/kg/injection, schedule: Q04DX003 (ip), vehicle: other", "result": "8 of 8"}, {"measurement": "survivor count", "setting": "[1]", "result": "8 of 8"}, {"measurement": "survivor count", "setting": "dose: 1.0 mg/kg/injection, schedule: Q01DX001 (oral), vehicle: other", "result": "8 of 8"}, {"measurement": "survivor count", "setting": "dose: 1.0 mg/kg/injection, schedule: Q01DX005 (ip), vehicle: other", "result": "8 of 8"}, {"measurement": "survivor count", "setting": "dose: 1.0 mg/kg/injection, schedule: Q01DX005 (iv), vehicle: other", "result": "8 of 8"}, {"measurement": "survivor count", "setting": "dose: 1.0 mg/kg/injection, schedule: Q01DX009 (ip), vehicle: Klucel (hydroxypropylcellulose) (HPC)", "result": "4 of 6"}, {"measurement": "survivor count", "setting": "dose: 1.0 mg/kg/injection, schedule: Q01DX009 (ip), vehicle: other", "result": "8 of 8"}, {"measurement": "survivor count", "setting": "dose: 1.0 mg/kg/injection, schedule: Q01DX009 (ip), vehicle: saline + alcohol", "result": "6 of 6"}, {"measurement": "survivor count", "setting": "dose: 1.0 mg/kg/injection, schedule: Q01DX009 (oral), vehicle: other", "result": "8 of 8"}, {"measurement": "survivor count", "setting": "dose: 1.0 mg/kg/injection, schedule: Q01DX009 (sc), vehicle: other", "result": "8 of 8"}, {"measurement": "survivor count", "setting": "dose: 1.0 mg/kg/injection, schedule: Q03HX008 (ip), vehicle: other", "result": "6 of 8"}, {"measurement": "survivor count", "setting": "dose: 1.0 mg/kg/injection, schedule: Q03HX016 (ip), vehicle: other", "result": "4 of 8"}, {"measurement": "survivor count", "setting": "dose: 1.0 mg/kg/injection, schedule: Q03HX024 (ip), vehicle: other", "result": "4 of 8"}, {"measurement": "survivor count", "setting": "dose: 1.0 mg/kg/injection, schedule: Q04DX003 (ip), vehicle: other", "result": "8 of 8"}, {"measurement": "survivor count", "setting": "dose: 1.0 mg/kg/injection, schedule: Q08DX002 (ip), vehicle: other", "result": "8 of 8"}, {"measurement": "survivor count", "setting": "dose: 2.0 mg/kg/injection, schedule: Q01DX001 (ip), vehicle: other", "result": "8 of 8"}, {"measurement": "survivor count", "setting": "dose: 2.0 mg/kg/injection, schedule: Q01DX001 (oral), vehicle: other", "result": "8 of 8"}, {"measurement": "survivor count", "setting": "dose: 2.0 mg/kg/injection, schedule: Q01DX005 (ip), vehicle: other", "result": "8 of 8"}, {"measurement": "survivor count", "setting": "dose: 2.0 mg/kg/injection, schedule: Q01DX005 (iv), vehicle: other", "result": "8 of 8"}, {"measurement": "survivor count", "setting": "dose: 2.0 mg/kg/injection, schedule: Q01DX009 (ip), vehicle: Klucel (hydroxypropylcellulose) (HPC)", "result": "6 of 6"}, {"measurement": "survivor count", "setting": "dose: 2.0 mg/kg/injection, schedule: Q01DX009 (ip), vehicle: other", "result": "8 of 8"}, {"measurement": "survivor count", "setting": "dose: 2.0 mg/kg/injection, schedule: Q01DX009 (ip), vehicle: saline + alcohol", "result": "5 of 6"}, {"measurement": "survivor count", "setting": "dose: 2.0 mg/kg/injection, schedule: Q01DX009 (oral), vehicle: other", "result": "8 of 8"}, {"measurement": "survivor count", "setting": "dose: 2.0 mg/kg/injection, schedule: Q01DX009 (sc), vehicle: other", "result": "8 of 8"}, {"measurement": "survivor count", "setting": "dose: 2.0 mg/kg/injection, schedule: Q03HX008 (ip), vehicle: other", "result": "0 of 8"}, {"measurement": "survivor count", "setting": "dose: 2.0 mg/kg/injection, schedule: Q03HX016 (ip), vehicle: other", "result": "0 of 8"}, {"measurement": "survivor count", "setting": "dose: 2.0 mg/kg/injection, schedule: Q03HX024 (ip), vehicle: other", "result": "0 of 8"}, {"measurement": "survivor count", "setting": "dose: 2.0 mg/kg/injection, schedule: Q04DX003 (ip), vehicle: other", "result": "8 of 8"}, {"measurement": "survivor count", "setting": "dose: 2.0 mg/kg/injection, schedule: Q08DX002 (ip), vehicle: other", "result": "8 of 8"}, {"measurement": "survivor count", "setting": "dose: 4.0 mg/kg/injection, schedule: Q01DX001 (ip), vehicle: other", "result": "8 of 8"}, {"measurement": "survivor count", "setting": "dose: 4.0 mg/kg/injection, schedule: Q01DX001 (oral), vehicle: other", "result": "8 of 8"}, {"measurement": "survivor count", "setting": "dose: 4.0 mg/kg/injection, schedule: Q01DX005 (ip), vehicle: other", "result": "8 of 8"}, {"measurement": "survivor count", "setting": "dose: 4.0 mg/kg/injection, schedule: Q01DX005 (iv), vehicle: other", "result": "2 of 8"}, {"measurement": "survivor count", "setting": "dose: 4.0 mg/kg/injection, schedule: Q01DX009 (ip), vehicle: Klucel (hydroxypropylcellulose) (HPC)", "result": "5 of 6"}, {"measurement": "survivor count", "setting": "dose: 4.0 mg/kg/injection, schedule: Q01DX009 (ip), vehicle: other", "result": "7 of 8"}, {"measurement": "survivor count", "setting": "dose: 4.0 mg/kg/injection, schedule: Q01DX009 (ip), vehicle: saline + alcohol", "result": "3 of 6"}, {"measurement": "survivor count", "setting": "dose: 4.0 mg/kg/injection, schedule: Q01DX009 (oral), vehicle: other", "result": "8 of 8"}, {"measurement": "survivor count", "setting": "dose: 4.0 mg/kg/injection, schedule: Q01DX009 (sc), vehicle: other", "result": "7 of 8"}, {"measurement": "survivor count", "setting": "dose: 4.0 mg/kg/injection, schedule: Q03HX008 (ip), vehicle: other", "result": "0 of 8"}, {"measurement": "survivor count", "setting": "dose: 4.0 mg/kg/injection, schedule: Q03HX016 (ip), vehicle: other", "result": "0 of 8"}, {"measurement": "survivor count", "setting": "dose: 4.0 mg/kg/injection, schedule: Q04DX003 (ip), vehicle: other", "result": "8 of 8"}, {"measurement": "survivor count", "setting": "dose: 4.0 mg/kg/injection, schedule: Q08DX002 (ip), vehicle: other", "result": "8 of 8"}, {"measurement": "survivor count", "setting": "dose: 8.0 mg/kg/injection, schedule: Q01DX001 (ip), vehicle: other", "result": "8 of 8"}, {"measurement": "survivor count", "setting": "dose: 8.0 mg/kg/injection, schedule: Q01DX001 (oral), vehicle: other", "result": "8 of 8"}, {"measurement": "survivor count", "setting": "dose: 8.0 mg/kg/injection, schedule: Q01DX009 (oral), vehicle: other", "result": "8 of 8"}, {"measurement": "survivor count", "setting": "dose: 8.0 mg/kg/injection, schedule: Q04DX003 (ip), vehicle: other", "result": "8 of 8"}, {"measurement": "survivor count", "setting": "dose: 8.0 mg/kg/injection, schedule: Q08DX002 (ip), vehicle: other", "result": "7 of 8"}, {"measurement": "survivor count", "setting": "dose: 16.0 mg/kg/injection, schedule: Q01DX001 (ip), vehicle: other", "result": "3 of 8"}, {"measurement": "survivor count", "setting": "dose: 16.0 mg/kg/injection, schedule: Q01DX001 (oral), vehicle: other", "result": "8 of 8"}, {"measurement": "survivor count", "setting": "dose: 16.0 mg/kg/injection, schedule: Q08DX002 (ip), vehicle: other", "result": "3 of 8"}]}, {"smiles": "CC12CCC(O)CC1CCC1C2CCC2(C)C(c3ccc(=O)oc3)CCC12O", "note": "(configuration not stated)", "values": [{"measurement": "survivor count", "setting": "dose: 0.5 mg/kg/injection, schedule: Q01DX001 (ip), vehicle: saline", "result": "2 of 2"}, {"measurement": "survivor count", "setting": "dose: 5.0 mg/kg/injection, schedule: Q01DX001 (ip), vehicle: saline", "result": "2 of 2"}, {"measurement": "survivor count", "setting": "dose: 50.0 mg/kg/injection, schedule: Q01DX001 (ip), vehicle: saline", "result": "0 of 2"}]}, {"smiles": "Nc1ncc2ccccc2c1-c1ccc(NC(=O)CN(CCCl)CCCl)cc1", "values": [{"measurement": "survivor count", "setting": "[1]", "result": "2 of 2"}, {"measurement": "survivor count", "setting": "dose: 10.0 mg/kg/injection, schedule: Q01DX001 (ip), vehicle: other", "result": "2 of 2"}, {"measurement": "survivor count", "setting": "dose: 100.0 mg/kg/injection, schedule: Q01DX001 (ip), vehicle: other", "result": "2 of 2"}]}]}
